Article doi:10.1101/2024.11.19.624255
Where two headings read alike, the source gives them in different places. Results are given in words; binding and its absence hold for the method and conditions named. Blank lines part the entries; values can stand above or below the binder they belong to.

Tests used:
Assay in all cases: differential centrifugation
dN-SARM1 E642A (human) [1] = target: dN-SARM1 E642A (human) (UniProt Q6SZW1)
dN-SARM1 E642A (human) [2] = target: dN-SARM1 E642A (human) (UniProt Q6SZW1); remark: listed apart in the source
dN-SARM1 R569A (human) = dN-SARM1 R569A (human) (UniProt Q6SZW1)
dN-SARM1 W662A (human) = dN-SARM1 W662A (human) (UniProt Q6SZW1)
dN-SARM1 F603A (human) = dN-SARM1 F603A (human) (UniProt Q6SZW1)
dN-SARM1 L607A (human) = dN-SARM1 L607A (human) (UniProt Q6SZW1)

binding (dN-SARM1 E642A (human) [1]): no binding (tested: SIR3 7 μM on cells)
binding (dN-SARM1 E642A (human) [2]): no binding (tested: SIR3-ADPR 100 μM)
B1: dN-SARM1 E642A (enzyme, UniProt Q6SZW1 28-724)
chain: LAVPGPDGGGGTGPWWAAGGRGPREVSPGAGTEVQDALERALPELQQALSALKQAGGARAVGAGLAEVFQLVEEAWLLPAVGREVAQGLCDAIRLDGGLDLLLRLLQAPELETRVQAARLLEQILVAENRDRVARIGLGVILNLAKEREPVELARSVAGILEHMFKHSEETCQRLVAAGGLDAVLYWCRRTDPALLRHCALALGNCALHGGQAVQRRMVEKRAAEWLFPLAFSKEDELLRLHACLAVAVLATNKEVEREVERSGTLALVEPLVASLDPGRFARCLVDASDTSQGRGPDDLQRLVPLLDSNRLEAQCIGAFYLCAEAAIKSLQGKTKVFSDIGAIQSLKRLVSYSTNGTKSALAKRALRLLGEEVPRPILPSVPSWKEAEVQTWLQQIGFSKYCESFREQQVDGDLLLRLTEEELQTDLGMKSGITRKRFFRELTELKTFANYSTCDRSNLADWLGSLDPRFRQYTYGLVSCGLDRSLLHRVSEQQLLEDCGIHLGVHRARILTAAREMLHSPLPCTGGKPSGDTPDVFISYRRNSGSQLASLLKVHLQLHGFSVFIDVEKLEAGKFEDKLIQSVMGARNFVLVLSPGALDKCMQDHDCKDWVHKAIVTALSCGKNIVPIIDGFEWPEPQVLPEDMQAVLTFNGIKWSHEYQEATIEKIIRFLQGRSSRDSSAGSDTSLEGAAPMGPT

binding (dN-SARM1 R569A (human)): no binding
B2: dN-SARM1 R569A (enzyme, UniProt Q6SZW1 28-724)
chain: LAVPGPDGGGGTGPWWAAGGRGPREVSPGAGTEVQDALERALPELQQALSALKQAGGARAVGAGLAEVFQLVEEAWLLPAVGREVAQGLCDAIRLDGGLDLLLRLLQAPELETRVQAARLLEQILVAENRDRVARIGLGVILNLAKEREPVELARSVAGILEHMFKHSEETCQRLVAAGGLDAVLYWCRRTDPALLRHCALALGNCALHGGQAVQRRMVEKRAAEWLFPLAFSKEDELLRLHACLAVAVLATNKEVEREVERSGTLALVEPLVASLDPGRFARCLVDASDTSQGRGPDDLQRLVPLLDSNRLEAQCIGAFYLCAEAAIKSLQGKTKVFSDIGAIQSLKRLVSYSTNGTKSALAKRALRLLGEEVPRPILPSVPSWKEAEVQTWLQQIGFSKYCESFREQQVDGDLLLRLTEEELQTDLGMKSGITRKRFFRELTELKTFANYSTCDRSNLADWLGSLDPRFRQYTYGLVSCGLDRSLLHRVSEQQLLEDCGIHLGVHRARILTAAREMLHSPLPCTGGKPSGDTPDVFISYARNSGSQLASLLKVHLQLHGFSVFIDVEKLEAGKFEDKLIQSVMGARNFVLVLSPGALDKCMQDHDCKDWVHKEIVTALSCGKNIVPIIDGFEWPEPQVLPEDMQAVLTFNGIKWSHEYQEATIEKIIRFLQGRSSRDSSAGSDTSLEGAAPMGPT

binding (dN-SARM1 W662A (human)): no binding
B3: dN-SARM1 W662A (enzyme, UniProt Q6SZW1 28-724)
chain: LAVPGPDGGGGTGPWWAAGGRGPREVSPGAGTEVQDALERALPELQQALSALKQAGGARAVGAGLAEVFQLVEEAWLLPAVGREVAQGLCDAIRLDGGLDLLLRLLQAPELETRVQAARLLEQILVAENRDRVARIGLGVILNLAKEREPVELARSVAGILEHMFKHSEETCQRLVAAGGLDAVLYWCRRTDPALLRHCALALGNCALHGGQAVQRRMVEKRAAEWLFPLAFSKEDELLRLHACLAVAVLATNKEVEREVERSGTLALVEPLVASLDPGRFARCLVDASDTSQGRGPDDLQRLVPLLDSNRLEAQCIGAFYLCAEAAIKSLQGKTKVFSDIGAIQSLKRLVSYSTNGTKSALAKRALRLLGEEVPRPILPSVPSWKEAEVQTWLQQIGFSKYCESFREQQVDGDLLLRLTEEELQTDLGMKSGITRKRFFRELTELKTFANYSTCDRSNLADWLGSLDPRFRQYTYGLVSCGLDRSLLHRVSEQQLLEDCGIHLGVHRARILTAAREMLHSPLPCTGGKPSGDTPDVFISYRRNSGSQLASLLKVHLQLHGFSVFIDVEKLEAGKFEDKLIQSVMGARNFVLVLSPGALDKCMQDHDCKDWVHKEIVTALSCGKNIVPIIDGFEAPEPQVLPEDMQAVLTFNGIKWSHEYQEATIEKIIRFLQGRSSRDSSAGSDTSLEGAAPMGPT

binding (dN-SARM1 F603A (human)): no binding
B4: dN-SARM1 F603A (enzyme, UniProt Q6SZW1 28-724)
chain: LAVPGPDGGGGTGPWWAAGGRGPREVSPGAGTEVQDALERALPELQQALSALKQAGGARAVGAGLAEVFQLVEEAWLLPAVGREVAQGLCDAIRLDGGLDLLLRLLQAPELETRVQAARLLEQILVAENRDRVARIGLGVILNLAKEREPVELARSVAGILEHMFKHSEETCQRLVAAGGLDAVLYWCRRTDPALLRHCALALGNCALHGGQAVQRRMVEKRAAEWLFPLAFSKEDELLRLHACLAVAVLATNKEVEREVERSGTLALVEPLVASLDPGRFARCLVDASDTSQGRGPDDLQRLVPLLDSNRLEAQCIGAFYLCAEAAIKSLQGKTKVFSDIGAIQSLKRLVSYSTNGTKSALAKRALRLLGEEVPRPILPSVPSWKEAEVQTWLQQIGFSKYCESFREQQVDGDLLLRLTEEELQTDLGMKSGITRKRFFRELTELKTFANYSTCDRSNLADWLGSLDPRFRQYTYGLVSCGLDRSLLHRVSEQQLLEDCGIHLGVHRARILTAAREMLHSPLPCTGGKPSGDTPDVFISYRRNSGSQLASLLKVHLQLHGFSVFIDVEKLEAGKAEDKLIQSVMGARNFVLVLSPGALDKCMQDHDCKDWVHKEIVTALSCGKNIVPIIDGFEWPEPQVLPEDMQAVLTFNGIKWSHEYQEATIEKIIRFLQGRSSRDSSAGSDTSLEGAAPMGPT

binding (dN-SARM1 L607A (human)): no binding
B5: dN-SARM1 L607A (enzyme, UniProt Q6SZW1 28-724)
chain: LAVPGPDGGGGTGPWWAAGGRGPREVSPGAGTEVQDALERALPELQQALSALKQAGGARAVGAGLAEVFQLVEEAWLLPAVGREVAQGLCDAIRLDGGLDLLLRLLQAPELETRVQAARLLEQILVAENRDRVARIGLGVILNLAKEREPVELARSVAGILEHMFKHSEETCQRLVAAGGLDAVLYWCRRTDPALLRHCALALGNCALHGGQAVQRRMVEKRAAEWLFPLAFSKEDELLRLHACLAVAVLATNKEVEREVERSGTLALVEPLVASLDPGRFARCLVDASDTSQGRGPDDLQRLVPLLDSNRLEAQCIGAFYLCAEAAIKSLQGKTKVFSDIGAIQSLKRLVSYSTNGTKSALAKRALRLLGEEVPRPILPSVPSWKEAEVQTWLQQIGFSKYCESFREQQVDGDLLLRLTEEELQTDLGMKSGITRKRFFRELTELKTFANYSTCDRSNLADWLGSLDPRFRQYTYGLVSCGLDRSLLHRVSEQQLLEDCGIHLGVHRARILTAAREMLHSPLPCTGGKPSGDTPDVFISYRRNSGSQLASLLKVHLQLHGFSVFIDVEKLEAGKFEDKAIQSVMGARNFVLVLSPGALDKCMQDHDCKDWVHKEIVTALSCGKNIVPIIDGFEWPEPQVLPEDMQAVLTFNGIKWSHEYQEATIEKIIRFLQGRSSRDSSAGSDTSLEGAAPMGPT
